# Measurements from patent publication USRE41209E1, “Platinum complexes” (Genzyme Corporation, priority 1996, dated 2010).
# System: ADJ/PC6
# Experiment: ADJ/PC6 tumour mass reduction in Balb C mice
# Type: in vivo
structure (smiles),measurement,setting,value
"Cc1cccc[n+]1[Pt-2]([NH3+])([Cl])[Cl] [Example 1, (SP-4-3)-amminedichloro(2-methylpyridine) platinum(II)]","TI, therapeutic index; LD50/ED90","ADJ/PC6, Daily × 5 (i.p.)",26.3
same,"TI, therapeutic index; LD50/ED90","ADJ/PC6, Single dose (i.p.)",14.3
same,"TI, therapeutic index; LD50/ED90","ADJ/PC6, Single dose (p.o.)",90.3
